Data on 1 compound can be found in US20210087217A1, “NUCLEOTIDE HEMI-SULFATE SALT FOR THE TREATMENT OF HEPATITIS C VIRUS” (Atea Pharmaceuticals, Inc., priority 2017, published 2021).

Counter-ions that a name gives are not always drawn.

This series in a line: Accelerated stability (40 ± 2° C./75 ± 5% RH) of Compound 2. Format: physicochemical. The note with it: 0 month. The protocol:
Three conditions were tested: accelerated stability (40 2° C./75±5% RH) over a 6-month time period, ambient stability (25±2° C./60±5% RH) over a 9-month period, and stability under refrigerator conditions (5 3° C.) over a 9-month time period. The results for accelerated stability, ambient stability, and refrigerator conditions are shown in Table 23, Table 24, and Table 25, respectively.
After six months, the total related substance 1 impurities was only 0.08% and there was no detection of related substance 2 and isomers.

`CNc1nc(N)nc2c1ncn2[C@@H]1O[C@H](CO[P@@](=O)(N[C@@H](C)C(=O)OC(C)C)Oc2ccccc2)[C@@H](O)[C@@]1(C)F` [Compound 2, hemi-sulfate salt of isopropyl((S)-(((2R,3R,4R,5R)-5-(2-amino-6-(methylamino)-9H-purin-9-yl)-4-fluoro-3-hydroxy-4-methyltetrahydrofuran-2-yl)methoxy)(phenoxy)phosphoryl)-L-alaninate]: the “Microbial Testing: Mold and Yeast” value was less than 1 cfu/g; the “Microbial Testing: TAMC” value is less than 1 cfu/g.
